Measurements from patent US20250066503A1, “CELL INJURY INDUCING THERAPEUTIC DRUG FOR USE IN CANCER THERAPY” (CHUGAI SEIYAKU KABUSHIKI KAISHA, priority 2016, published 2025).

Tested on: extracellular matrix (BD Matrigel)
Experiment: Assessment of the ECM-binding ability (ECL on BD Matrigel)
Conditions: fluorescence intensity relative to standard antibody MRAH-G1d/MRAL-k0

Molecule | ECM binding ratio (standard = 1)
MRAH-G1d/MRAL-k0: standard antibody of the ECM-binding assessment [reference compound] | 1
antibody-18: optimized anti-human CD3ε chain and anti-human GPC3 bispecific antibody (antibody) heavy 1: QVQLVESGGGLVQPGRSLRLSCAASGFTFSNAWMHWVRQAPGKGLEWVAQIKDKSQNYATYYAESVKGRFTISRADSKNSIYLQMNSLKTEDTAVYYCRYVHYSASYGVDAWGQGTTVTVSSASTKGPSVFPLAPCSRSTSESTAALGCLVKDYFPEPVTVSWNSGALTSGVHTFPAVLQSSGLYSLSSVVTVPSSSLGTKTYTCNVDHKPSNTKVDKRVESKYGPPCPPCPAPEFRGGPKVFLFPPKPKDTLMISRTPEVTCVVVDVSQEDPEVQFNWYVDGVEVHNAKTKPREEQFASTYRVVSVLTVLHQDWLNGKEYKCKVSNKGLPSSIEKTISKAKGQPREPQVYTLPPSQKEMTKNQVSLTCLVKGFYPSDIAVEWESNGQPENNYKTTPPVLDSDGSFFLYSKLTVDKSRWQEGNVFSCSVMHEALHNRYTQKSLSLSP heavy 2: QVQLVQSGAEVKKPGASVKVSCKASGYTFTDYEMHWIRQPPGQGLEWIGAIDGKTPDTAYSQKFKGRVTLTADKSTSTAYMELSSLTSEDTAVYYCTRFYSYTYWGQGTLVTVSSASTKGPSVFPLAPCSRSTSESTAALGCLVKDYFPEPVTVSWNSGALTSGVHTFPAVLQSSGLYSLSSVVTVPSSSLGTQTYTCNVDHKPSNTKVDKRVESKYGPPCPPCPAPEFRGGPKVFLFPPKPKDTLMISRTPEVTCVVVDVSQEDPEVQFNWYVDGVEVHNAKTKPREEQFASTYRVVSVLTVLHQDWLNGKEYKCKVSNKGLPSSIEKTISKAKGQPREPQVYTLPPSQEEMTKNQVSLTCLVKGFYPSDIAVEWESNGQPENNYKTTPPVLDSDGSFFLYSKLTVDKSRWQEGNVFSCSVMHEALHNHYTQESLSLSP light: DIVMTQSPLSLPVTPGEPASISCRSSQSPVHSNRNTYLHWYQQKPGQAPRLLIYKVSNRFWGVPDRFSGSGSGTDFTLKISRVEAEDVGVYYCYQGTQVPYTFGQGTKLEIKRTVAAPSVFIFPPSDEQLKSGTASVVCLLNNFYPREAKVQWKVDNALQSGNSQESVTEQDSKDSTYSLSSTLTLSKADYEKHKVYACEVTHQGLSSPVTKSFNRGEC | 50.4
